The whole screen tested about 1,300 compounds, of which about 65 (5%) were called active.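 How the source made its calls: active means growth inhibition reaching a set limit at one or more tested doses; inactive means the rest.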 The list shows a part of the results. Potency and affinity values are given separately.
Experiment: wild-type E. coli BW25113 antibacterial activity – OD615, dose response (AID 638)
Details: at 100 µM (top of the series) unless noted
Outline: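 Material – E. coli BW25113 wild type · Medium – Kanamycin-supplemented LB broth · Doses – compound dilution series for dose-response · Incubation – 20 h compound exposure, 37 °C · Technique – optical density (absorbance) at 615 nm · Read-out basis – IC50 from 4-parameter logistic, bounds fixed 0–100% · Control set – chloramphenicol at 30 µM final as inhibition control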

Growth inhibition, inactive:
CCCN(CCC)c1nc2ccccc2nc1C(C#N)C(=O)OCCOC (configuration not stated) -4.58%
O=C(Oc1ccccc1)c1cc2ccccc2o1 7.26%
COc1ccccc1-c1cc(C(=O)NC(C)c2ccccc2)no1 (configuration not stated) -6.27%
CCSC1=C(C#N)C(c2ccc(Cl)cc2)C2=C(CCCC2=O)N1 (configuration not stated) 11.6%
O=C(Nc1nc(-c2cc(Cl)sc2Cl)cs1)c1cccs1 -7.16%
CCOC(=O)c1cnc(-n2nc(C)cc2C)nc1Nc1ccc(N(C)C)cc1 -9.22%
O=C(NC12CC3CC(CC(C3)C1)C2)c1ccccc1O 13.4%
O=C(COc1ccc2ccccc2c1Br)N1CCN(c2ccccn2)CC1 -12.5%
CC(C)c1ccc(-c2nnn(Cc3nc4ccccc4s3)n2)cc1 11.7%
O=C1CC(c2ccco2)CC2=C1C1c3ccccc3C(=O)N1c1ccccc1N2 (configuration not stated) -3.27%
c1ccc(CC2CCN(c3nnnn3-c3ccccc3)CC2)cc1 -7.68%
CCCCN(CCCNC(=O)CN1C(=O)COc2ccccc21)c1ccccc1 6.07%
COc1ccc(-c2[nH]ncc2-c2cnn(-c3ccccc3)c2)c(O)c1 0.4%
Cn1c(=O)n(CCc2ccccc2)c(=O)c2c1nc1n2CCCN1CCc1ccccc1 -24.7%
Cc1ccccc1-c1nc(CS(=O)(=O)CC(=O)N2CCc3ccccc3C2)c(C)o1 -10.7%
Cc1ccc(-c2noc(CSc3nnnn3C3CCCCC3)n2)cc1 -3.03%
CCCc1nc(SCC(=O)N2CCCc3ccccc32)c2c(=O)n(C)c(=O)n(C)c2n1 -22%
Cc1cccc(N=c2oc3cc(O)ccc3cc2C(N)=O)c1 5.71%
CCOC(=O)N1CCc2c(sc(NC(=O)c3ccc(Cl)s3)c2C(N)=O)C1 -4.25%
CCNc1nc(NC(C)C)nc(N(C#N)Cc2ccccc2)n1 2.21%
Clc1ccc(OCc2nc(-c3ccccn3)n[nH]2)cc1 14.2%
Cc1ccc(C2c3c(-c4ccccc4O)n[nH]c3C(=O)N2Cc2ccncc2)cc1 (configuration not stated) -4.25%
CCC(C(=O)Nc1ccccc1OC)n1c(C(=O)OC)cc2ccsc21 (configuration not stated) -0.45%
O=C(Nc1ccccc1)Nc1ccc(S(=O)(=O)N2CCCCC2)cc1 14.5% [at 50 µM]
COC(=O)c1c(C)oc2ccc(OC(=O)c3cccs3)cc12 -12.5%
O=C(COc1cccc(OC(F)F)c1)Nc1ccc(SC(F)F)cc1 12.4%
N#CC1=C(N)NC(SCc2ccccc2)=C(C#N)C12CCCCC2 12.1%
O=C(NCc1ccc2c(c1)OCO2)c1ccc(-c2ccc(Cl)cc2)o1 -1.94%
Cc1ccc(C)c2[nH]c(=O)c(CN(CC3CCCO3)S(=O)(=O)c3ccc4c(c3)OCCO4)cc12 (configuration not stated) 2.71%
COCc1nnc(NC(=O)c2ccc(S(=O)(=O)N(C)c3ccccc3)cc2)o1 -7.12%
CCCc1ccc(OCc2ccc(C(=O)N3CCN(c4ccccn4)CC3)o2)c(OC)c1 -16.6%
N#CCSc1n[nH]c2nc3c(c(=O)n12)C1(CCCC1)Cc1ccccc1-3 0.5%
Cc1ccc(S(=O)(=O)c2nc(Nc3nccs3)sc2Cl)cc1 4.34%
Cc1cccc(-c2nc(CS(=O)CC(=O)NCCCSC3CCCCC3)c(C)o2)c1 (configuration not stated) -13.6%
CCn1c(SC)nnc1-c1sc2cc(Cl)ccc2c1Cl 2.34%
CC(C)N(Cc1nc(-c2ccccc2)no1)C(=O)c1ccc(Cl)cc1 5.78%
CCOc1ccc2nc(NC(=O)CN3CCC(n4nnc5cc(F)ccc54)CC3)sc2c1 -10.8%
COc1ccc2[nH]c3c(=O)n(CCCCC(=O)N4CCC(C(N)=O)CC4)c(=S)[nH]c3c2c1 -15.3%
Cc1ccc(-c2nnc(N3CCN(c4ccccn4)CC3)c3ccccc23)cc1 -5.07%
O=C(CCSc1nnc2scc(-c3ccccc3)n12)Nc1nc(-c2ccccc2)ns1 -24.2%
CCCCNC(=O)c1sc(=S)n2c1[nH]c(=O)c1ccccc12 6.87%
CCCCn1c(NC(=O)c2ccccc2)c(C#N)c2nc3ccccc3nc21 -8.7%
Cc1ccc(-n2c(C)cc(C(=O)COC(=O)c3c(C)noc3C)c2C)cc1 -8.83%
COc1ccc2nc(NC(=O)CSc3nnnn3C3CCCCC3)sc2c1 17.8%
Cc1ccc(Cl)cc1N1CCN(C(=O)CCS(=O)(=O)c2cccc3nonc23)CC1 -4.01%
CCC(CC)c1nnc(NC(=O)c2c(-c3ccccc3)noc2C)s1 9.3%
CCOC(=O)c1c(N)sc2c(OC)c(Br)ccc12 4.47%
O=S(=O)(Nc1cccc2cccnc12)c1ccc(S(=O)(=O)N2CCCC2)cc1 -10.4%
COc1ccc(NC(=O)N(C2CCCCC2)C(C)c2ccco2)c(OC)c1 (configuration not stated) -17%
Cc1c(NC(=O)Nc2ccc(Cl)c(Cl)c2)c(=O)n(-c2ccccc2)n1C 18%
COCc1nnc(NC(=O)c2ccc(S(=O)(=O)N3CCCCCC3)cc2)o1 4.41%
CCCCOc1ccccc1Cn1c(=O)oc2ccc(C)cc21 9.69%
Cc1cc(C(=O)OCc2nnc(-c3ccccc3)o2)c(C)n1-c1ccccc1 -1.68%
CCCCC(CC)CNC(=O)c1[nH]c(C)c(C(C)=O)c1C (configuration not stated) 5.62%
CC(C)(C)C1CCC2(CC1)C(C#N)=C(SCC(=O)NC1CCCCC1)NC(=O)C2C#N (configuration not stated) 12.2%
CCOC(=O)Cc1csc(NC(=O)c2ccc(S(=O)(=O)N3CCCCC3)cc2)n1 -9.76%
O=C(Nc1nnc(-c2ccc3c(c2)OCCO3)o1)c1ccc(Cc2ccccc2)cc1 -22.7%
N#Cc1nc(-c2ccc(OCc3ccccc3Cl)cc2)oc1NCCCn1ccnc1 19.2%
COC(=O)c1ccc(/C(O)=C(\C#N)c2nc3ccccc3s2)cc1 -7.38%
CC1CCc2nc(NC(=O)c3cc(C(C)(C)C)nn3C)sc2C1 (configuration not stated) -12.2%
O=c1c2cccc3c2c(nn1CN1CCOCC1)-c1ccccc1-3 -1.71%
Cc1ccc(O)c(C(=O)CC(=O)c2cccc(F)c2)c1 11.9%
CCCCN(C)S(=O)(=O)c1ccc(C(=O)Nc2nnc(CSC)o2)cc1 9.84%
COc1ccc(-c2cnc(SCC(=O)Nc3ccc4c(c3)OCO4)n2Cc2ccco2)cc1 -19.6%
CCSc1nnc(NC(=O)c2nc(-c3ccccc3)n(-c3ccccc3)n2)s1 -4.83%
Cc1onc(-c2ccccc2)c1C(=O)Nc1sc2c(c1C#N)CCC2 -0.05%
O=C(NCc1ccco1)c1cnn2c1NC(c1ccc(Br)cc1)CC2C(F)(F)F (configuration not stated) -7.73%
COc1ccc(-n2c(C)nc3c(cnn3-c3ccc(Cl)cc3)c2=O)cc1 11.4%
O=C(CS(=O)(=O)c1ccccc1)Nc1nc(-c2ccccc2)cs1 7.34%
CSCSC1=C(C#N)C(c2ccc(Cl)cc2)C(C(C)=O)=C(C)N1 (configuration not stated) -4.61%
C=CCSc1n[nH]c(-c2ccc(OCCCC)cc2)n1 5.29%
CCOc1ccc(N(CC(=O)Nc2cccc(Cl)c2)S(=O)(=O)c2c(C)noc2C)cc1 2.24%
COc1ccc(-c2cnc(SCC(=O)Nc3cc(C)on3)n2Cc2ccco2)cc1 -5.14%
COc1ccc(-c2[nH]ncc2-c2ccc3c(c2)OCCO3)c(O)c1 -9.75%
Cc1oc2c(CN3CCCC3)c(O)ccc2c(=O)c1-c1ccc(Br)cc1 8.91%
CCOc1cc(/C=C(/C#N)c2ccc(F)cc2)ccc1OCc1ccc(C(=O)O)o1 -1.68%
CC1CCc2cc(F)ccc2N1C(=O)c1cc2nc(-c3ccco3)cc(C(F)(F)F)n2n1 (configuration not stated) 2.56%
CC1Oc2ccccc2N(Cc2ccccc2Cl)C1=O (configuration not stated) 0.22%
CCCSc1oc(-c2ccco2)nc1S(=O)(=O)c1ccccc1 5.15%
O=C(Oc1ccc2ccccc2c1Cl)N1CCCC1 13.7%
Cc1nnc(SC(=O)N2c3ccccc3Sc3ccccc32)s1 -6.4%
Cc1cc(SCC#N)n2nc(C)c(-c3ccccc3)c2n1 2.64%
CCN(CC)c1ccc(C(=O)n2cnc3ccccc32)cc1 10.6%
COc1ccc(Cl)cc1N(C)C(=O)CCc1nc(-c2ccc(C)cc2)no1 -1.58%
CC1=CC(C)(C)N2C(=O)C3(C(C#N)=C(N)Oc4cc(O)ccc43)c3cccc1c32 (configuration not stated) 7.51%
Cc1ccc(O)c(-c2cc3ccccc3[nH]2)c1 11.5% [at 50 µM]
CSc1ncc(Cl)c(C(=O)C(C#N)c2nc3c(C)cc(C)cc3c(=O)[nH]2)n1 (configuration not stated) -10.1%
O=C(Nc1ccc(Cl)cc1)N1CCC(c2nc(-c3cccs3)no2)CC1 15%
COc1c(C)cc(Br)cc1C(=O)Nc1cccc(NC(=O)c2ccco2)c1 -0.57%
CCN(CC)c1ccc(C(=O)Nc2cccc(F)c2)cc1 0.51%
O=C(Nc1ccccc1N1CCCCC1)c1cccc(F)c1 3.24%
CCOc1ccc(NS(=O)(=O)c2ccc3[nH]cc(C(=O)NC(C)CC)c(=O)c3c2)cc1 (configuration not stated) 8.14%

Sorted by molar mass (falling): 6 of the compounds above.
Growth inhibition, inactive:
COCc1nnc(NC(=O)c2ccc(S(=O)(=O)N(C)c3ccccc3)cc2)o1 -7.12%
CSc1ncc(Cl)c(C(=O)C(C#N)c2nc3c(C)cc(C)cc3c(=O)[nH]2)n1 (configuration not stated) -10.1%
CC1CCc2nc(NC(=O)c3cc(C(C)(C)C)nn3C)sc2C1 (configuration not stated) -12.2%
CC1Oc2ccccc2N(Cc2ccccc2Cl)C1=O (configuration not stated) 0.22%
Clc1ccc(OCc2nc(-c3ccccn3)n[nH]2)cc1 14.2%
Cc1ccc(O)c(-c2cc3ccccc3[nH]2)c1 11.5% [at 50 µM]
